One may read the IC50 as the concentration that inhibits the measured activity by half.

Protein sequences, listed by entry. Tags and fused reporters are not part of them.
UniProt P51677, whole entry: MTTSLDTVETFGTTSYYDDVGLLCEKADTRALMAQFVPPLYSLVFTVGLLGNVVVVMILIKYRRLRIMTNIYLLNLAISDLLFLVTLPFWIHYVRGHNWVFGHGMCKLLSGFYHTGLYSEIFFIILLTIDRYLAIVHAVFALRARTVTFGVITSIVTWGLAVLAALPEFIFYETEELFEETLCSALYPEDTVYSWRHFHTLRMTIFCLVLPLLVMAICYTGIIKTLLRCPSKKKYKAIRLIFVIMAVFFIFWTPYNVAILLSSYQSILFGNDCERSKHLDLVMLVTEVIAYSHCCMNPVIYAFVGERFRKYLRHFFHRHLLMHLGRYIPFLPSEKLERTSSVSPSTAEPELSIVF

From patent publication US7482347B2, “Piperazine derivatives with CCR-3 inhibiting activity” (priority 2004, dated 2009) come the findings set out here.

This test deals with human CCR-3 (Homo sapiens, UniProt P51677). Description: [125I]-human eotaxin binding SPA assay on membranes of RBL-2H3 cells stably expressing CCR3. The conditions noted are these: read-out: IC50 (inhibition of binding of [125I]-human eotaxin to CCR-3), membranes of RBL-2H3 cells expressing CCR3, 50 pM [125I]-human eotaxin, 4 hours at room temperature. From the text:
Recombinant cells expressing human CCR-3 are captured by wheatgerm agglutinin (WGA) polyvinyltoluidene (PVT) SPA beads (available from Amersham), through a specific interaction between the WGA and carbohydrate residues of glycoproteins on the surface of the cells. [^125I]-human eotaxin (available from Amersham) binds specifically to CCR-3 receptors bringing the [^125I]-human eotaxin in close proximity to the SPA beads. Emitted â-particles from the [^125I]-human eotaxin excite, by its proximity, the fluorophore in the beads and produce light.
Preparation of Assay Buffer: 5.96 g HEPES and 7.0 g sodium chloride are dissolved in distilled water and 1 M aqueous CaCl2 (1 ml) and 1M aqueous MgCl2 (5 ml) are added. The pH is adjusted to 7.6 with NaOH and the solution made to a final volume of 1 l using distilled water. 5 g bovine serum albumin and 0.1 g sodium azide are then dissolved in the solution and the resulting buffer stored at 4° C. A COMPLETE™ protease inhibitor cocktail tablet (available from Boehringer) is added per 50 ml of the buffer on the day of use. […]
The assay is performed in a final volume of 250 μl per well of an OPTIPLATE™ microplate (ex Canberra Packard). […] The resulting scintillations are counted using a Canberra Packard TopCount, each well being counted for 1 minute. […]

Molecules are shown by their SMILES. The structures given here were assigned with low confidence; some may be wrong.

`COC(=O)c1sccc1S(=O)(=O)N1CCC(CN2CCN(Cc3ccc(F)cc3)CC2)CC1`: the concentration for half-maximal inhibition (IC50) came to 290 nM.
